Results are given in words; binding and its absence hold for the method and conditions named. In cells and extracts the contact can be indirect. Some results given as binding are weak or reduced against the parent protein; the word gives no strength. Sequences can lack the tags named with a protein.
Molecular target: T1, HA-tagged scleraxis (pECE-HA-Scx) (UniProt Q64124)
T1 sequence: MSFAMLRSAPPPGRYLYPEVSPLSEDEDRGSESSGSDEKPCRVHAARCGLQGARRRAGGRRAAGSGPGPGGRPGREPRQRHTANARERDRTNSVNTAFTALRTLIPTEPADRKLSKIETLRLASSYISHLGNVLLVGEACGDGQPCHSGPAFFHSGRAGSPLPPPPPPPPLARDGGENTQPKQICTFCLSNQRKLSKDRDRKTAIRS
Assay: co-IP; NIH-3T3 cells transfected 48 h with HA-Scx (or HA-ScxΔHLH) and Myc-Smad3; lysis in 50 mmol/L Tris pH 7.5, 150 mmol/L NaCl, 0.5 % Triton X-100; 500 μg protein immunoprecipitated with anti-HA antibody or rabbit IgG; western blot with anti-c-myc

The chains behind the UniProt entries cited, without tags or fusion partners.
UniProt P84022: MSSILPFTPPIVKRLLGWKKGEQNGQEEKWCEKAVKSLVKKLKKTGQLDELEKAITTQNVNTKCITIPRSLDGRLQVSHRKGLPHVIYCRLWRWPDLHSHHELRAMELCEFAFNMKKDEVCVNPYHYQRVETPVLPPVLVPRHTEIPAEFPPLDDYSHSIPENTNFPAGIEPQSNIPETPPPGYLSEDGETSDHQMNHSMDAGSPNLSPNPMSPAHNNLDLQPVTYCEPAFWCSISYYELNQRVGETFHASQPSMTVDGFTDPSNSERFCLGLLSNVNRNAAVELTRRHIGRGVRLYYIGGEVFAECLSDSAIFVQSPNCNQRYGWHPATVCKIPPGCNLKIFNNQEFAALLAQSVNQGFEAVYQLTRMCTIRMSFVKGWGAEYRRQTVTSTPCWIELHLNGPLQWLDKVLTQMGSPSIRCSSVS

myc-tagged Smad3 (pCMV tag3C-Myc-Smad3) (from UniProt P84022 1-425)
binding: binds

Reference: publication PMC4794909, “The transcription factor scleraxis is a critical regulator of cardiac fibroblast phenotype”
